In patent US8580825B2, “Oxadiazole inhibitors of leukotriene production” (Boehringer Ingelheim International GmbH, priority 2010, dated 2013):
The match of structure and compound is tentative.

Protein sequences, listed by entry. Tags and fused reporters are not part of them.
UniProt P20292, whole entry: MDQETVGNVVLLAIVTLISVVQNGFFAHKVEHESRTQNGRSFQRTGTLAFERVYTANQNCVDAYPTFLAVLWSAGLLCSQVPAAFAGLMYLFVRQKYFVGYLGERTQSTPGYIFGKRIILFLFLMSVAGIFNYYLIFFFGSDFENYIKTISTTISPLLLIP

Assays:
[1] = target: recombinant human FLAP protein (Homo sapiens, UniProt P20292); assay: FLAP binding assay (Scintillation Proximity Assay, displacement of [125I]L-691,831); settings: read-out: FLAP SPA IC50
[2] = test system: synthesis of LTB4 in human whole blood; assay: human whole blood LTB4 production inhibition assay; settings: read-out: hWB LTB4 IC50, calcimycin stimulated

| SMILES | IC50 [1] [µM] | IC50 [2] [µM] |
| --- | --- | --- |
| C[C@@](c1ccc(-c2cnc(N)nc2)nc1)(c1noc(-c2cnn(CC#N)c2)n1)C1CC1 | 0.0063 | 0.032 |
| CC(C)[C@](C)(c1ccc(-c2cnc(N)nc2)nc1)c1noc(-c2cnn(CCN3CCCC3)c2)n1 | 0.013 | 0.03 |
| CC(C)C(C)(c1ccc(-c2cnc(N)nc2)nc1)c1noc(-c2cn(CC(=O)N(C)C)cn2)n1 (stereo not drawn) | 0.7 | > 5 |
